Data taken from paper PMC10613289.
For at least one entry, the source does not settle the construct or the ends of the probe. Where cells or extracts were used, other partners may take part. No signal at the amounts used counts as a negative.

The chains behind the UniProt entries cited, without tags or fusion partners.
UniProt O00425, whole entry: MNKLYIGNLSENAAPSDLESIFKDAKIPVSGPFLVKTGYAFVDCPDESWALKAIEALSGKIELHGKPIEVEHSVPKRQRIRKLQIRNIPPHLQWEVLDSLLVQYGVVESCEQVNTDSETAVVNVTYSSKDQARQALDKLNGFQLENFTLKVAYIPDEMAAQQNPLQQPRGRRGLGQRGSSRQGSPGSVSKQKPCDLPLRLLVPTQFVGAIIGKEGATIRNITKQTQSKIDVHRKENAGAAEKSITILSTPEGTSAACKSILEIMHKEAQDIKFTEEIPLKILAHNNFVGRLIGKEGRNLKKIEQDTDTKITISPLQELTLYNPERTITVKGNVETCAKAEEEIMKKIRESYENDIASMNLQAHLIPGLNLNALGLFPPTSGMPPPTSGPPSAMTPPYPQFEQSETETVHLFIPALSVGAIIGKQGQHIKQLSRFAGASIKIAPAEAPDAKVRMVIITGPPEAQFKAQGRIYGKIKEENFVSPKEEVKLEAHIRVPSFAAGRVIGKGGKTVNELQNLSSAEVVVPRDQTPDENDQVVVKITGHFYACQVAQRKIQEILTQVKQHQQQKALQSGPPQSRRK

Molecular target: IGF2BP3 endogenous (human (A549, SW620, HCT116 cells)) (UniProt O00425)
Assay: pull-down
Conditions: A549 lysate, protein in an extract, label: 3' biotin

Sequence | binding result | binding result ('remarkably abolished')
ACUAGCUGGUGCGACCAUCAGUGAAGAAGA [M2 probe] | no binding | –
ACUCUAAACGGAGCUGCAUUGAGUGCCACC [M1 (M1-WT) probe] | binds | –
ACUCUAAACGGAGCUGGUAAGAGUGCCACC [M1-mut probe] | – | no binding
